From paper PMC3382782
No constants are given. Whether binding was seen depends on the method and setting. In cells and extracts the contact can be indirect. Some binding calls cover weakened binding; strength is not graded here.

Protein sequences, listed by entry. Tags and fused reporters are not part of them. Lines headed by an entry give the natural chain unless they say otherwise; changes in a name come on top.
UniProt P07359: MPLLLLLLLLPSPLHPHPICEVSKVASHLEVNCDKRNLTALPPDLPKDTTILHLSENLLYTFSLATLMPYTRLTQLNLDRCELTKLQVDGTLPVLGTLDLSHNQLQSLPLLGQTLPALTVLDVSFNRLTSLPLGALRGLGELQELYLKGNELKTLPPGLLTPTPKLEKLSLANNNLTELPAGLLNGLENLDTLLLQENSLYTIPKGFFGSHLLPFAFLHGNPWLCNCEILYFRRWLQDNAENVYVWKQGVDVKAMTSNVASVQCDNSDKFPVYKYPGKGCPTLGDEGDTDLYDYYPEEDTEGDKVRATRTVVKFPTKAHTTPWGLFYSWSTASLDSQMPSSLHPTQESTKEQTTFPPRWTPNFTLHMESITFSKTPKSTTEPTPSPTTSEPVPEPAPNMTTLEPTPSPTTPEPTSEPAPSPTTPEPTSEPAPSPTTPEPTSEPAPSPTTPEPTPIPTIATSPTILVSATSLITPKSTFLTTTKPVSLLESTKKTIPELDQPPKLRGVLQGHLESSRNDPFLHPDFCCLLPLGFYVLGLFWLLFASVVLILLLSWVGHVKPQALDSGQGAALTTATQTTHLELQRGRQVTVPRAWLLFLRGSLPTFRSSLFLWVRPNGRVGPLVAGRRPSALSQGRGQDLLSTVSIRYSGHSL
UniProt G3HKZ1: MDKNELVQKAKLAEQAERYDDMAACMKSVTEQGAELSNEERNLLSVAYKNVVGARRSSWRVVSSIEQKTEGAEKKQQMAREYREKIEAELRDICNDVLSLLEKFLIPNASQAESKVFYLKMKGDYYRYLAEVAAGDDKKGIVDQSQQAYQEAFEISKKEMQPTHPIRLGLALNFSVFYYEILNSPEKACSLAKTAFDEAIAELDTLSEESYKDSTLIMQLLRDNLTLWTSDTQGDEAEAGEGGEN

Molecular target: wild type glycoprotein (GP) Ib-IX expressed on CHO cells (1b9) (UniProt P07359)
Experiment: co-IP; 1b9 or S609A cells stimulated by ristocetin (1.25 mg/mL) with or without VWF (35 μg/mL), 30 min RT; lysed in Triton X-100 buffer pH 7.4; lysates precipitated with SZ2 (anti-GPIbα) and protein G sepharose 4B; blotted with SZ2 and anti-14-3-3ζ

binding: binds
Substance: 14-3-3ζ (from UniProt G3HKZ1 1-245)
